Assay results as given in the supplement of paper PMC9233669.
Variants at the background level are over-represented here.

How the values were obtained:
biotinyl-Val-oxazolone = experiment: self-aminoacylation, catalytic enhancement (BVO) (fold over background); higher = more active; k-Seq, kA / k0A0; sequences stand for … in GGGAAUGGAUCCACAUCUACGAAUUC…UUCACUGCAGACUUGACGAAGCUG
Outline: (§1)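 Working in 50 μL HEPES/NaCl/KCl/MgCl2/CaCl2 buffer with 5% acetonitrile at pH 6.9–7.0, mutagenized RNA pools (0.43 μM; 21-nt variable region) were reacted with 2–1250 μM of each biotinyl-aminoacyl-oxazolone for 90 minutes at room temperature. Streptavidin capture followed, with quantification by triplicate qPCR and Illumina sequencing. Catalytic enhancement is reported as median kA over the uncatalyzed rate, the low-activity peak of a bimodal Gaussian fit to the data.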

biotinyl-Met-oxazolone = experiment: self-aminoacylation, catalytic enhancement (BMO) (fold over background); higher = more active; k-Seq, kA / k0A0; sequences stand for … in GGGAAUGGAUCCACAUCUACGAAUUC…UUCACUGCAGACUUGACGAAGCUG
Outline: as §1

biotinyl-Trp-oxazolone = experiment: self-aminoacylation, catalytic enhancement (BWO) (fold over background); higher = more active; k-Seq, kA / k0A0; sequences stand for … in GGGAAUGGAUCCACAUCUACGAAUUC…UUCACUGCAGACUUGACGAAGCUG
Outline: as §1

biotinyl-Leu-oxazolone = experiment: self-aminoacylation, catalytic enhancement (BLO) (fold over background); higher = more active; k-Seq, kA / k0A0; sequences stand for … in GGGAAUGGAUCCACAUCUACGAAUUC…UUCACUGCAGACUUGACGAAGCUG
Outline: as §1

biotinyl-Ile-oxazolone = experiment: self-aminoacylation, catalytic enhancement (BIO) (fold over background); higher = more active; k-Seq, kA / k0A0; sequences stand for … in GGGAAUGGAUCCACAUCUACGAAUUC…UUCACUGCAGACUUGACGAAGCUG
Outline: as §1

“AACUUUGCUAAUACUCGCAAG [Fam3.1 aminoacylation ribozyme variant]” showed a self-aminoacylation (biotinyl-Val-oxazolone) of 1.35, a self-aminoacylation (biotinyl-Met-oxazolone) of 1.44 and a self-aminoacylation (biotinyl-Trp-oxazolone) of 1.26. For the same sequence, the self-aminoacylation (biotinyl-Leu-oxazolone) was 1.73.

“AAGCCUGCUAAUAGUCGCAAG [Fam3.1 aminoacylation ribozyme variant]” gave a self-aminoacylation (biotinyl-Val-oxazolone) of 1.77, a self-aminoacylation (biotinyl-Met-oxazolone) of 1.61 and a self-aminoacylation (biotinyl-Ile-oxazolone) of 1.86. The self-aminoacylation (biotinyl-Trp-oxazolone) was 11.1 and the self-aminoacylation (biotinyl-Leu-oxazolone) was 1.64.

In the case of “AAGCUUACUAAUAGUCGCAAG [Fam3.1 aminoacylation ribozyme variant]”, the self-aminoacylation (biotinyl-Val-oxazolone) is reported as 1.69, the self-aminoacylation (biotinyl-Met-oxazolone) is reported as 1.54 and the self-aminoacylation (biotinyl-Ile-oxazolone) is reported as 1.63. The self-aminoacylation (biotinyl-Trp-oxazolone) was 1.97 and the self-aminoacylation (biotinyl-Leu-oxazolone) was 1.33.

For “AAGGUAGCUAAUAGUCGCAAG [Fam3.1 aminoacylation ribozyme variant]”, the self-aminoacylation (biotinyl-Val-oxazolone) was 1.57, the self-aminoacylation (biotinyl-Met-oxazolone) was 1.31 and the self-aminoacylation (biotinyl-Ile-oxazolone) was 1.49. It also gave a self-aminoacylation (biotinyl-Trp-oxazolone) of 1.45 and a self-aminoacylation (biotinyl-Leu-oxazolone) of 1.53.

In the case of “AAGGUUGCUAAUAGUCGCCAG [Fam3.1 aminoacylation ribozyme variant]”, the self-aminoacylation (biotinyl-Val-oxazolone) is reported as 1.25, the self-aminoacylation (biotinyl-Met-oxazolone) is reported as 1.46 and the self-aminoacylation (biotinyl-Ile-oxazolone) is reported as 1.6. It also gave a self-aminoacylation (biotinyl-Trp-oxazolone) of 1.61 and a self-aminoacylation (biotinyl-Leu-oxazolone) of 1.04.

“AAGGUUGCUUAUAGUCGCAAG [Fam3.1 aminoacylation ribozyme variant]” showed a self-aminoacylation (biotinyl-Val-oxazolone) of 1.69, a self-aminoacylation (biotinyl-Met-oxazolone) of 1.28 and a self-aminoacylation (biotinyl-Ile-oxazolone) of 1.71. It also gave a self-aminoacylation (biotinyl-Trp-oxazolone) of 1.67 and a self-aminoacylation (biotinyl-Leu-oxazolone) of 1.43.

For “AAGUAUGAUAAUAGUCGCAAG [Fam3.1 aminoacylation ribozyme variant]”, the self-aminoacylation (biotinyl-Val-oxazolone) was 1.28, the self-aminoacylation (biotinyl-Met-oxazolone) was 1.13 and the self-aminoacylation (biotinyl-Ile-oxazolone) was 1.22. The self-aminoacylation (biotinyl-Trp-oxazolone) was 1.2 and the self-aminoacylation (biotinyl-Leu-oxazolone) was 1.1.

“AAGUCUCCUAAUAGUCGCAAG [Fam3.1 aminoacylation ribozyme variant]” gave a self-aminoacylation (biotinyl-Val-oxazolone) of 1.34, a self-aminoacylation (biotinyl-Met-oxazolone) of 1.31 and a self-aminoacylation (biotinyl-Ile-oxazolone) of 1.39. The self-aminoacylation (biotinyl-Trp-oxazolone) was 1.13 and the self-aminoacylation (biotinyl-Leu-oxazolone) was 1.73.

“AAGUCUGCUAUUAGUCGCAAG [Fam3.1 aminoacylation ribozyme variant]” was tested, and the self-aminoacylation (biotinyl-Val-oxazolone) was 1.07, the self-aminoacylation (biotinyl-Met-oxazolone) was 1.41 and the self-aminoacylation (biotinyl-Ile-oxazolone) was 1.03. It also gave a self-aminoacylation (biotinyl-Trp-oxazolone) of 1.27 and a self-aminoacylation (biotinyl-Leu-oxazolone) of 1.69.

Sequence “AAGUUAGCUAAUAGUCACAAG [Fam3.1 aminoacylation ribozyme variant]” has a self-aminoacylation (biotinyl-Val-oxazolone) of 1.38, a self-aminoacylation (biotinyl-Met-oxazolone) of 1.48 and a self-aminoacylation (biotinyl-Ile-oxazolone) of 1.55. The self-aminoacylation (biotinyl-Trp-oxazolone) was 1.59 and the self-aminoacylation (biotinyl-Leu-oxazolone) was 1.16.

In the case of “AAGUUAGCUAAUAGUCGCACG [Fam3.1 aminoacylation ribozyme variant]”, the self-aminoacylation (biotinyl-Val-oxazolone) is reported as 1.54, the self-aminoacylation (biotinyl-Met-oxazolone) is reported as 1.58 and the self-aminoacylation (biotinyl-Ile-oxazolone) is reported as 1.43. It also gave a self-aminoacylation (biotinyl-Trp-oxazolone) of 1.14 and a self-aminoacylation (biotinyl-Leu-oxazolone) of 1.43.

“AAGUUCGCUAAUAGUCGCACG [Fam3.1 aminoacylation ribozyme variant]” showed a self-aminoacylation (biotinyl-Val-oxazolone) of 1.74, a self-aminoacylation (biotinyl-Met-oxazolone) of 1.77 and a self-aminoacylation (biotinyl-Trp-oxazolone) of 1.64.

With “AAGUUGGCUAAUAGUCGCUAG [Fam3.1 aminoacylation ribozyme variant]” the self-aminoacylation (biotinyl-Val-oxazolone) was 1.22, the self-aminoacylation (biotinyl-Met-oxazolone) was 1.35 and the self-aminoacylation (biotinyl-Ile-oxazolone) was 1.43. The self-aminoacylation (biotinyl-Trp-oxazolone) was 1 and the self-aminoacylation (biotinyl-Leu-oxazolone) was 1.22.

Sequence “AAGUUUACUAAUAGUCGUAAG [Fam3.1 aminoacylation ribozyme variant]” has a self-aminoacylation (biotinyl-Val-oxazolone) of 1.11, a self-aminoacylation (biotinyl-Met-oxazolone) of 1.16 and a self-aminoacylation (biotinyl-Ile-oxazolone) of 1.1. For the same sequence, the self-aminoacylation (biotinyl-Trp-oxazolone) was 1.12 and the self-aminoacylation (biotinyl-Leu-oxazolone) was 0.974.

“AAGUUUCCUAAUAGUCGCCAG [Fam3.1 aminoacylation ribozyme variant]” gave a self-aminoacylation (biotinyl-Val-oxazolone) of 1.52, a self-aminoacylation (biotinyl-Met-oxazolone) of 1.49 and a self-aminoacylation (biotinyl-Ile-oxazolone) of 1.72. It also gave a self-aminoacylation (biotinyl-Trp-oxazolone) of 1.61 and a self-aminoacylation (biotinyl-Leu-oxazolone) of 1.74.

With “AAGUUUGCCAAUAGUCGCAAA [Fam3.1 aminoacylation ribozyme variant]” the self-aminoacylation (biotinyl-Val-oxazolone) was 1.88, the self-aminoacylation (biotinyl-Ile-oxazolone) was 1.97 and the self-aminoacylation (biotinyl-Trp-oxazolone) was 1.79. For the same sequence, the self-aminoacylation (biotinyl-Leu-oxazolone) was 1.64.

“AAGUUUGCGAAUAGUCGCAAU [Fam3.1 aminoacylation ribozyme variant]” showed a self-aminoacylation (biotinyl-Val-oxazolone) of 1.61, a self-aminoacylation (biotinyl-Ile-oxazolone) of 1.77 and a self-aminoacylation (biotinyl-Trp-oxazolone) of 1.77. The self-aminoacylation (biotinyl-Leu-oxazolone) was 1.98.

Sequence “AAGUUUGCUAAAAGUCGCAUG [Fam3.1 aminoacylation ribozyme variant]” has a self-aminoacylation (biotinyl-Val-oxazolone) of 1.13, a self-aminoacylation (biotinyl-Met-oxazolone) of 0.966 and a self-aminoacylation (biotinyl-Ile-oxazolone) of 0.96. For the same sequence, the self-aminoacylation (biotinyl-Trp-oxazolone) was 1.06 and the self-aminoacylation (biotinyl-Leu-oxazolone) was 1.07.

“AAGUUUGCUAAUACUCGCCAG [Fam3.1 aminoacylation ribozyme variant]” was tested, and the self-aminoacylation (biotinyl-Val-oxazolone) was 0.836, the self-aminoacylation (biotinyl-Met-oxazolone) was 0.629 and the self-aminoacylation (biotinyl-Ile-oxazolone) was 0.916. For the same sequence, the self-aminoacylation (biotinyl-Trp-oxazolone) was 0.773 and the self-aminoacylation (biotinyl-Leu-oxazolone) was 0.655.

For “AAGUUUGCUAAUAGUCGCAAA [Fam3.1 aminoacylation ribozyme variant]”, the self-aminoacylation (biotinyl-Val-oxazolone) was 1.39, the self-aminoacylation (biotinyl-Met-oxazolone) was 1.48 and the self-aminoacylation (biotinyl-Ile-oxazolone) was 1.6. It also gave a self-aminoacylation (biotinyl-Trp-oxazolone) of 1.61 and a self-aminoacylation (biotinyl-Leu-oxazolone) of 1.32.

In the case of “AAGUUUGCUAAUCGUCGCAAG [Fam3.1 aminoacylation ribozyme variant]”, the self-aminoacylation (biotinyl-Val-oxazolone) is reported as 0.877, the self-aminoacylation (biotinyl-Met-oxazolone) is reported as 0.9 and the self-aminoacylation (biotinyl-Ile-oxazolone) is reported as 0.92. It also gave a self-aminoacylation (biotinyl-Trp-oxazolone) of 1.49 and a self-aminoacylation (biotinyl-Leu-oxazolone) of 0.789.

“AAGUUUGCUAAUGGCCGCAAG [Fam3.1 aminoacylation ribozyme variant]” showed a self-aminoacylation (biotinyl-Val-oxazolone) of 1.46, a self-aminoacylation (biotinyl-Met-oxazolone) of 1.3 and a self-aminoacylation (biotinyl-Ile-oxazolone) of 1.27. For the same sequence, the self-aminoacylation (biotinyl-Trp-oxazolone) was 1.35 and the self-aminoacylation (biotinyl-Leu-oxazolone) was 1.24.

“AAGUUUGCUAAUUGUCGCAAU [Fam3.1 aminoacylation ribozyme variant]” was tested, and the self-aminoacylation (biotinyl-Val-oxazolone) was 1.51, the self-aminoacylation (biotinyl-Met-oxazolone) was 1.82 and the self-aminoacylation (biotinyl-Ile-oxazolone) was 1.65. It also gave a self-aminoacylation (biotinyl-Trp-oxazolone) of 1.27 and a self-aminoacylation (biotinyl-Leu-oxazolone) of 1.81.

Sequence “AAGUUUGCUCACAGUCGCAAG [Fam3.1 aminoacylation ribozyme variant]” has a self-aminoacylation (biotinyl-Val-oxazolone) of 0.889, a self-aminoacylation (biotinyl-Met-oxazolone) of 0.718 and a self-aminoacylation (biotinyl-Ile-oxazolone) of 0.815. It also gave a self-aminoacylation (biotinyl-Trp-oxazolone) of 1.73 and a self-aminoacylation (biotinyl-Leu-oxazolone) of 0.91.

Sequence “AAGUUUGUUAAUAGUCGCAAG [Fam3.1 aminoacylation ribozyme variant]” has a self-aminoacylation (biotinyl-Val-oxazolone) of 1.14, a self-aminoacylation (biotinyl-Met-oxazolone) of 1.16 and a self-aminoacylation (biotinyl-Ile-oxazolone) of 1.27. For the same sequence, the self-aminoacylation (biotinyl-Trp-oxazolone) was 1.27 and the self-aminoacylation (biotinyl-Leu-oxazolone) was 1.15.

For “AAGUUUUCAAAUAGUCGCAAG [Fam3.1 aminoacylation ribozyme variant]”, the self-aminoacylation (biotinyl-Val-oxazolone) was 1.39, the self-aminoacylation (biotinyl-Met-oxazolone) was 1.59 and the self-aminoacylation (biotinyl-Ile-oxazolone) was 1.68. For the same sequence, the self-aminoacylation (biotinyl-Trp-oxazolone) was 1.65 and the self-aminoacylation (biotinyl-Leu-oxazolone) was 1.65.

For “AAGUUUUCUAAUAGCCGCAAG [Fam3.1 aminoacylation ribozyme variant]”, the self-aminoacylation (biotinyl-Val-oxazolone) was 1.71, the self-aminoacylation (biotinyl-Met-oxazolone) was 1.65 and the self-aminoacylation (biotinyl-Ile-oxazolone) was 1.46. It also gave a self-aminoacylation (biotinyl-Trp-oxazolone) of 1.23 and a self-aminoacylation (biotinyl-Leu-oxazolone) of 1.87.

Sequence “AAGUUUUCUAAUAGUUGCAAG [Fam3.1 aminoacylation ribozyme variant]” has a self-aminoacylation (biotinyl-Val-oxazolone) of 1.26, a self-aminoacylation (biotinyl-Met-oxazolone) of 1.32 and a self-aminoacylation (biotinyl-Ile-oxazolone) of 1.77. It also gave a self-aminoacylation (biotinyl-Trp-oxazolone) of 1.48 and a self-aminoacylation (biotinyl-Leu-oxazolone) of 1.52.

“AAUUUAGCUAAUAGUCGCAAG [Fam3.1 aminoacylation ribozyme variant]” gave a self-aminoacylation (biotinyl-Val-oxazolone) of 1.57, a self-aminoacylation (biotinyl-Met-oxazolone) of 1.82 and a self-aminoacylation (biotinyl-Trp-oxazolone) of 1.81. It also gave a self-aminoacylation (biotinyl-Leu-oxazolone) of 1.92.
